According to patent US20210308065A1, “REMOTE MODULATION OF BICONTINUOUS NANOSPHERES FOR CONTROLLED DELIVERY APPLICATIONS” (Northwestern University, priority 2020, published 2021):

Test system: RAW 264.7 cells
Test: Subcellular localization and retention of free or BCN-encapsulated FITC-BSA (confocal microscopy)
Assay type: cell-based, murine

FITC-BSA: fluorescein-tagged bovine serum albumin
Integrated density of fluorescent signal from cells (4 h time point): higher at the early 4 h time point compared to FITC-BSA BCNs
Integrated density of fluorescent signal from cells (48 h): significantly lower than the FITC-BSA BCN signal at 48 h
Intracellular fluorescence intensity of FITC-BSA punctae over time (RAW 264.7 cells, after 4-h incubation, confocal): decreased in intensity over the course of 48 h
